Data published in PubChem BioAssay AID2685 (National Center for Advancing Translational Sciences (NCATS), 2010).
The campaign covered roughly 320,000 compounds. About 2,100 (0.66%) were called active. The inconclusive results got no clear call from the source; some entries with a clear call stand among them for comparison. Calls come from the whole dose curve; as a rule, active = well fitted inhibition curve with a large enough effect in the signal ratio, with a control signal flat (not every such curve was filed as active); inconclusive = small, poorly fitted or top-dose-only effect, or effect the other way, or a change in a side signal; inactive = flat fitted curve, though single readings scatter; the % refers to the signal ratio. Where the call is inconclusive, the potency comes from a doubtful curve fit.

Assay: qHTS Assay for Lipid Storage Modulators in Drosophila S3 Cells
Conditions: BODIPY lipid droplet fluorescence, 18-24 h, cells fed with added oleic acid; lipid storage change, negative = inhibition: at 46.1 µM (top of the series) unless noted
Outline: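 Laser-scanning cytometry quantifies lipid droplet accumulation (500–530 nm total intensity; droplet/cell object ratio) in oleic acid-fed (400 uM added) Drosophila S3 cells treated with a concentration series. 20 uM Triacsin C defined 100% inhibition.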
% is set by controls: 0 for no effect and ±100 for the full control effect; potency is the fitted concentration of half-maximal effect.

Structure (SMILES)	lipid storage change, negative = inhibition	Potency
O=C(COc1cccc2ccccc12)N1CCN(c2ccccc2)CC1	inconclusive: -3.89%	
COc1cccc(C(=O)OC2CCN(C)CC2)c1	inconclusive: -35.1%	
CCOC(=O)CC(=O)CSc1nc(-c2cccnc2)ccc1C#N	inconclusive: 55%	
O=C(NCCC1=CCCCC1)C1CCN(C(=O)Nc2ccccc2)CC1		inconclusive: 5.17 µM [cytotoxic, full curve]
COc1cc(/C=N/n2cnnc2)ccc1OCc1ccccc1	inconclusive: 37%	
COc1ccc(-c2nc3ncccc3o2)cc1NC(=O)c1cccs1		inconclusive: 5.8 µM [falling, single point]
Cc1c(Cl)cccc1NC(=O)C1COc2ccccc2O1 (stereo not drawn)	inconclusive: -28.3%	
COc1ccc(NC(=O)N2Cc3ccccc3CC2C(=O)NC(C)(C)C)cc1 (stereo not drawn)	inactive	
COc1ccc(CCNCC2C(Oc3ccc(Cl)cc3)C(=O)N2c2ccccc2C)cc1OC (stereo not drawn)	inconclusive: -9.69%	
C/C=C\C=C/C(=O)Nc1cccc(C2=NOC3(C2)C[C@@H](C(N)=O)N(C(=O)C2(C)CC2)C3)c1 (stereo partly drawn)	inconclusive: -4.23%	
COc1cccc(N(CC(=O)NC2CCCCC2)C(=O)CCC(=O)Nc2nc(C)cs2)c1		inconclusive: 6.51 µM [activator, partial curve, poor fit]
COc1ccc(N(C(=O)c2ccncc2)S(=O)(=O)c2cccc([N+](=O)[O-])c2)cc1	inconclusive: -1.45%	
CCn1c(CCC(=O)O)nc2cc(S(=O)(=O)N(C)C)ccc21	inconclusive: 57.8%	
CCc1ccccc1N(C(=O)c1snc(C(N)=O)c1N)C(C(=O)NCC1CCCO1)c1ccc(N(C)C)cc1 (stereo not drawn)	inconclusive: -15.4%	
CCOC(=O)c1ccc(S(=O)(=O)N2CC(=O)Nc3ccccc32)cc1	inconclusive: -100%	
N#CC(C#N)=C1NC2(CCCCC2)Cc2ccccc21	inconclusive: 17.6%	
Cc1sc2nc(CSc3ccccc3)nc(N3CCOCC3)c2c1C	inconclusive: 19.9%	
CCOc1cc(/C=N/NC(=O)Cn2nc([N+](=O)[O-])cc2C)cc(Br)c1OCc1ccccc1C	inconclusive: -19.2%	
O=C(CN1N=C(c2ccc(Cl)cc2)CCC1=O)NCCN1CCc2ccccc2C1	inconclusive: -16.6%	
O=C(NC(=S)Nc1cnc2ccccc2c1)c1ccccc1	inconclusive: 76.8%	
COCCn1c(SCC(=O)c2cc(C)n(C)c2C)nc2ccccc2c1=O		inconclusive: 0.58 µM [rising, partial curve]
COc1ccc(C(=O)NCCNC(=O)c2cnccn2)cc1OC		inconclusive: 5.8 µM [falling, partial curve, poor fit]
CCOC(=O)c1sc(NC(=S)NC(=O)c2ccccc2)c(C(=O)OCC)c1C	inconclusive: 13.8%	
COc1c2ccc(C(=O)NCc3cc(C(F)(F)F)cc(C(F)(F)F)c3)cc2nn1C		inconclusive: 11.6 µM [rising, partial curve]

Structure (SMILES)	lipid storage change, negative = inhibition	Potency
COc1ccc(N2C(=NC(=O)CCC3CCCC3)SC3CS(=O)(=O)CC32)cc1 (stereo not drawn)	inconclusive: 36%	
Cc1cc(Br)ccc1SCC(=O)Nc1cccnc1	inconclusive: 19.6%	
COc1ccccc1CNC(=O)COc1ccc(Br)c(C)c1		inconclusive: 2.59 µM [activator, single point]
CC(C)(C)c1ccccc1NC(=O)N1CCNC(=O)C1CC(=O)Nc1ccc(F)cc1 (stereo not drawn)	inconclusive: 17.3%	
Cc1cc(C)cc(C(=O)OCC(=O)NCC(F)(F)F)c1	inconclusive: 27.5%	
CCc1c(C(=O)Nc2nnc(C3CC3)s2)csc1C		inconclusive: 2.91 µM [activator, single point]
CCCN1CCN(C(c2cc3cc4c(cc3[nH]c2=O)OCO4)c2nnnn2C(C)(C)C)CC1 (stereo not drawn)		inconclusive: 0.116 µM [activator, full curve, poor fit]
C=CCn1c(=O)n(CCC#N)c(=O)n(CCC#N)c1=O	inconclusive: 50.2%	
CCc1nn2c(=O)c(S(=O)(=O)Nc3cccc(F)c3)c(C)nc2s1	inconclusive: 0.961%	
FC(F)(F)c1cccc(Nc2ncnc3ccccc23)c1		inconclusive: 14.6 µM [activator, partial curve]
CC1(C)CC2CC(C)(CN2C(=O)c2cccs2)C1 (stereo not drawn)	inactive	
COCCC(=O)N1CCC(Oc2ccc(C(=O)NCCn3cccn3)cc2)CC1	inconclusive: 12.9%	
CN(CC(=O)Nc1ccc(Cl)cc1)CC(=O)Nc1cc(Cl)ccc1C#N		inconclusive: 4.11 µM [activator, partial curve]
COc1ccc(/C=C2/SC(=S)N(CC(=O)O)C2=O)cc1OCc1ccc(Cl)cc1	inconclusive: 139%	
Cc1ccccc1/C=C/C(=O)NCC(=O)N1CCC(N(C)C2CCCCC2C)CC1 (stereo not drawn)		inconclusive: 4.61 µM [cytotoxic, single point]
CCOc1ccc(NC(=O)c2ccccc2NS(C)(=O)=O)cc1		inconclusive: 6.51 µM [activator, partial curve]
CCOc1ccc(Cl)cc1S(=O)(=O)N1CCC(C(=O)NCc2ccncc2)CC1		inconclusive: 0.0731 µM [falling, partial curve, poor fit]
CC1=CS(=O)(=O)CC1Sc1nc(C)n[nH]1 (stereo not drawn)		inconclusive: 29.1 µM [falling, single point]
CN(C)S(=O)(=O)c1cccc(COc2ncnc3c(Cl)cc(Cl)cc23)c1	inconclusive: -27.9%	
C=CC(COCc1ccccc1)N(C(=O)OC(C)(C)C)S(=O)(=O)c1ccccc1Br (stereo not drawn)	inconclusive: 4.56%	
CC(C)c1nc(N2CCN(C(=O)c3ccccc3)CC2)c(C#N)c2c1COC(C)(C)C2	inconclusive: 60.4%	
Cc1nc(Sc2ccccc2)c(C#N)c(C)c1[N+](=O)[O-]	inconclusive: 7.18%	
O=C(CC1SC(=NC2CCCCC2)NC1=O)Nc1ccccc1 (stereo not drawn)	inconclusive: -22.6%	
CC(CNC(=O)c1cc(COc2ccc3ncccc3c2)on1)c1ccccc1 (stereo not drawn)		inconclusive: 29.1 µM [falling, partial curve, poor fit]

Copied from the list:
Potency with FC(F)(F)c1cccc(Nc2ncnc3ccccc23)c1 reads inconclusive: 14.6 µM [activator, partial curve]
lipid storage change, negative = inhibition with COc1ccc(N2C(=NC(=O)CCC3CCCC3)SC3CS(=O)(=O)CC32)cc1 (stereo not drawn) reads inconclusive: 36%
lipid storage change, negative = inhibition with Cc1cc(C)cc(C(=O)OCC(=O)NCC(F)(F)F)c1 reads inconclusive: 27.5%
lipid storage change, negative = inhibition with C=CC(COCc1ccccc1)N(C(=O)OC(C)(C)C)S(=O)(=O)c1ccccc1Br (stereo not drawn) reads inconclusive: 4.56%
